Data reported in article PMC8303269, “ERα36–GPER1 Collaboration Inhibits TLR4/NFκB-Induced Pro-Inflammatory Activity in Breast Cancer Cells” (International Journal of Molecular Sciences, 2021).
Results are given in words; binding and its absence hold for the method and conditions named. In cells and extracts the contact can be indirect. Some binding calls cover weakened binding; strength is not graded here.

Chains of the proteins cited; added tags and fusions are not shown.
UniProt Q99527: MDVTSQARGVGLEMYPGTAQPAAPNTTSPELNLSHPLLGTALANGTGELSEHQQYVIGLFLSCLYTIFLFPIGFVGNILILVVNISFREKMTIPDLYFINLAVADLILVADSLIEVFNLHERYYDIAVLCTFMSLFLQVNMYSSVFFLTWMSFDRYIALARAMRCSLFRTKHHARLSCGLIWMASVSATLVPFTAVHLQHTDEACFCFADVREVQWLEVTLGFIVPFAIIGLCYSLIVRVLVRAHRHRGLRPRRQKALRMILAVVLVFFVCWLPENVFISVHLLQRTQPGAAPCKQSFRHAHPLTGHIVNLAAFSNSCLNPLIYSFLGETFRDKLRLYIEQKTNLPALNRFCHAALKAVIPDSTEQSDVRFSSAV

Legend:
[1] = target: G-protein Estrogen Receptor 1 (GPER1) (human (endogenous in SKBR3)) (UniProt Q99527); test: proximity ligation; Duolink In Situ, bright field; fixed SKBR3 cells, endogenous proteins; rabbit polyclonal anti-ERα36 and mouse monoclonal anti-GPER1; cells treated with E2 (10^-7 M) and/or LPS
[2] = target: G-protein Estrogen Receptor 1 (GPER1) (human (endogenous in SKBR3)) (UniProt Q99527); test: co-IP; SKBR3 whole-cell extract (hypotonic gentle lysis buffer, NaCl brought to 150 mM); precipitated with mouse monoclonal anti-GPER1 (clone 2F2) on protein G-sepharose, 4 °C; blot for ERα36; cells treated with E2 (10^-7 M) or LPS 100 μg/mL for 3-4 h
[3] = target: G-protein Estrogen Receptor 1 (GPER1) (human (endogenous in SKBR3)) (UniProt Q99527); test: proximity ligation; Duolink In Situ, bright field; fixed SKBR3 cells, endogenous proteins; rabbit polyclonal anti-ERα36 and mouse monoclonal anti-GPER1; untreated cells (baseline, no E2, no LPS)

B1: estrogen receptor alpha 36 (ERα36) (receptor, human (endogenous in SKBR3), UniProt P03372-4 1-310, looked up)
chain: MAMESAKETRYCAVCNDYASGYHYGVWSCEGCKAFFKRSIQGHNDYMCPATNQCTIDKNRRKSCQACRLRKCYEVGMMKGGIRKDRRGGRMLKHKRQRDDGEGRGEVGSAGDMRAANLWPSPLMIKRSKKNSLALSLTADQMVSALLDAEPPILYSEYDPTRPFSEASMMGLLTNLADRELVHMINWAKRVPGFVDLTLHDQVHLLECAWLEILMIGLVWRSMEHPGKLLFAPNLLLDRNQGKCVEGMVEIFDMLLATSSRFRMMNLQGEEFVCLKSIILLNSGISHVEAKKRILNLHPKIFGNKWFPRV
notes: called estrogen receptor isoform 4 in the NCBI database; Endogenous protein detected with a rabbit polyclonal anti-ERα36 antibody; also called ERa36; estrogen receptor isoform 4; source: endogenous, SKBR3 cells (fixed cells; whole-cell extract)
binding [1]: binds
binding [2]: binds
binding [3]: no binding (condition: untreated cells (no E2, no LPS))
